Source: patent publication US20090305962A1 (Amgen, published 2009)
Substitutions are numbered along the chain they refer to.

B1: SEQ ID NO 874 (designed binder)
chain: CLAHQFLCGNGQCLPLDWVCDGVTDCPDDSDEVGCPPRTCAPSHFQCGSGYCISQSWVCDGEYDCEDGSDEASCAGSVPSCPSDEFQCRNGRCIPRPWRCDGVNDCADNSDEEDCTEHT
B2: SEQ ID NO 850 (designed binder)
chain: CLPSEFQCRDSKICLSADWLCDGVNDCVDGSDEAGCPPRTCLPDQFQCGSGYCISQRWVCDGENDCEDSSDEANCAGSVPTCRASQFQCGSGYCIPRPWLCDGDNDCEDDSDETNCTPRT
B3: SEQ ID NO 821 (designed binder)
chain: CPSSQFRCSSGRCVPADWLCDGVNDCADNSDETGCPTRTCLPSQFQCGSGYCISQRWVCDGENDCEDGSDEANCAGSVPTCPSDEFRCRNGRCIPRAWRCDGVNDCGDSSDETSCSAPASEPPGSL
B4: SEQ ID NO 822 (designed binder)
chain: CPSDEFTCDSGRCVSLNWLCDGVNDCGDNSDEAGCPTRTCLPSQFQCGSGYCISQRWVCDGENDCEDSSDEANCAGSVPTCGANEFTCDNGRCLSPDLVCDGVDDCADSSDETDCQKPM
B5: SEQ ID NO 824 (designed binder)
chain: CLSDEFTCDSGRCVSLNWLCDGVNDCGDNSDEAGCPTHTCLPSQFQCGSGYCISQRWVCDGENDCEDSSDEANCAGSVPTCPASEFRCNNGRCIPAQWRCDGVNDCGDDSDEASCQAPT
B6: SEQ ID NO 865 (designed binder)
chain: CPSDEFRCGNGQCIPLDWVCDGVNDCPDDSDEEGCPPRTCAPSQFQCGSGYCISQRWVCDGENDCEDGSDEANCAGSVPTCPSDEFRCRNGRCIPRAWRCDGVNDCADNSDEEDCTEHT
B7: SEQ ID NO 927 (designed binder)
chain: B6 chain with P2V, E5Q, I14L, R38L, N63Y, R99C, V103I, A107T, H118Y
B8: SEQ ID NO 864 (designed binder)
chain: B6 chain with E5K, R92Q, R96L, A97D, R99V, A107P, N109D
B9: SEQ ID NO 904 (designed binder)
chain: B6 chain with P2L, S3P, E5Q, P27A, D29N, E33T, P37T, A41L, P42S
B10: SEQ ID NO 922 (designed binder)
chain: CLPDMFRCGTRQCIPLDWVCDGVNDCADNSDETGCPTRTCLPSQFQCGSGYCISQRWVCDGENDCEDGSDEANCAGSVPTCPSDEFRCRNGRCIPRSWCCDGVNDCADNSDEEDCTEHT
B11: SEQ ID NO 856 (designed binder)
chain: CLPDQFRCGNGQCMPLDWVCDGVYDCPDDSDEEGCPPRTCAQSKFQCGSGYCISQRWVCDGEYDCEDGSDEANCADSVPTCPSDEFRCRNGRCIPRGWRCDGVNDCADSSDEEDCTENP
B12: SEQ ID NO 902 (designed binder)
chain: CRPDQFRCDNGHCIQLDWVCDGVNDCQDDSDEDGCPPRTCAQSQFQCGSGYCISQSWVCDGENDCEDGSDEANCAGSVPTCPSDEFRCRNGRCIPRAWRCDGINDCEDHSDEEDCKAHT
B13: SEQ ID NO 827 (designed binder)
chain: CQANEFTCSSGNCLSPALLCDGVDDCGDNSDETYCASPAPTCLPSQFQCGSGYCISQRWVCDGENDCEDSSDEANCAGSVPTCQPGEFTCESGRCLPLRWLCDGEDDCVDSSDEASCQPPT
B14: SEQ ID NO 877 (designed binder)
chain: B13 chain with T33A
B15: SEQ ID NO 878 (designed binder)
chain: B13 chain with T33A
B16: SEQ ID NO 828 (designed binder)
chain: CQANEFTCSSGNCLSPALLCDGVDDCGDNSDETYCASPAPTCLPSQFQCGSGYCISQRWVCDGENDCEDSSDEANCAGSVPTCLSGEFTCENGNCLSLSLVCDGEDDCEDGSDEASCPPPT
B17: SEQ ID NO 825 (designed binder)
chain: CQANEFTCSSGNCLSPALLCDGVDDCGDNSDETNCASPAPTCLPSQFQCGSGYCISQRWVCDGENDCEDSSDEANCAGSVPTCPSDEFRCRNGRCIPRAWRCDGVNDCADNSDEEDCTEHT
B18: SEQ ID NO 823 (designed binder)
chain: CPSDEFTCDSGRCVSLNWLCDGVNDCGDNSDEAGCPTRTCLPSQFQCGSGYCISQRWVCDGENDCEDSSDEANCAGSVPTCPPDEFQCNSGSCLSQPLLCDGEDDCGDGSDEESCIAAEHT
B19: SEQ ID NO 870 (designed binder)
chain: CLPDQFRCGNGQCTPLDWVCDGVNDCPDDSDEEGCPPRTCAPSQFQCGSGYCIPQRWVCDGENDCEDGSDEANCAGSVPTCPSGEFQCSNGRCIPWAWRCDGVNDCADNSDEEDCTEPP
B20: SEQ ID NO 884 (designed binder)
chain: CLSDQFRCGEGQCIPLDWVCDGVSDCGDDSDEEGCPPSTCAPSQFQCGSGYCISQNWVCDGENDCEDGSDEANCAGCVPTCPADEFRCRDGRCIPRAWRCDGVNDCGDKSDEEDCTENT
B21: SEQ ID NO 921 (designed binder)
chain: CLRDQFRCGNGQCIPLDWACDGINDCPDDSDEGGCPPRMCAPSQFQCGSGYCIPLGWVCDGENDCEDGSDEANCAGSEPTCPSGEFRCRNGRCIPRAWLCDGVNDCADNSDEEDCTGHT
B22: SEQ ID NO 826 (designed binder)
chain: CELNEFTCSSGNCLSPALLCDGVDDCGDNSDETNCASPAPTCLPSQFQCGSGYCISQRWVCDGENDCEDGSDEANCAGSVPTCPSDEFRCRNGRCIPRAWRCDGVNDCADNSDEANCAGSVPT
B23: SEQ ID NO 829 (designed binder)
chain: CQANEFTCSSGNCLSPALLCDGVDDCGDNSDETNCASPAPTCLPSQFQCGSGYCISQRWVCDGEHDCEDSSDEANCAGSVPTCAPGEFTCGSGRCVPQTWRCDGVDDCLDSSDETDCSAPASEPPGSL
B24: SEQ ID NO 627 (designed binder)
chain: CLPNQFQCRSGQCIPRPWVCDGDNDCGDDSDEANCKAPVHTCLPSQFQCGSGYCISQRWVCDGENDCEDSSDEANCGRTEPT

Columns and labels:
human IL-6 [1] = biological target: T1, human IL-6 (human, UniProt P05231 30-212); experiment: ELISA on IL-6 (also TF1 cell assay)
T1 construct: the protein used was bought recombinant human IL-6 (R&D Systems), in part biotinylated; also called rhIL-6; hIL-6
T1 sequence: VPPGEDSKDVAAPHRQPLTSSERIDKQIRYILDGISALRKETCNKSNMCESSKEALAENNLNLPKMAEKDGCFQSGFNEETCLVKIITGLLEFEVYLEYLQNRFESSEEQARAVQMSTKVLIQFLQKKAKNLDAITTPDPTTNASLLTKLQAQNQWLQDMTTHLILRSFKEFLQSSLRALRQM

human IL-6 [2] = biological target: T1, human IL-6; experiment: panning and screening on IL-6

Row | Binder | binding result (human IL-6 [1]) | binding result (human IL-6 [2])
1 | B1 | binds | 
2 | B2 |  | binds
3 | B3 |  | binds
4 | B4 |  | binds
5 | B5 |  | binds
6 | B6 | binds | 
7 | B7 | binds | 
8 | B8 | binds | 
9 | B9 | binds | 
10 | B10 | binds | 
11 | B11 | binds | 
12 | B12 | binds | 
13 | B13 |  | binds
14 | B14 | binds | 
15 | B15 | binds | 
16 | B16 |  | binds
17 | B17 |  | binds
18 | B18 |  | binds
19 | B19 | binds | 
20 | B20 | binds | 
21 | B21 | binds | 
22 | B22 |  | binds
23 | B23 |  | binds
24 | B24 |  | binds
